Results deposited as PubChem BioAssay AID1224826 (NIAID, 2016).
The whole screen tested about 17,000 reagents; below is a random part of them. In the full data, about 1,110 (6.6%) were called active. 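Active means lowered or raised reporter signal; replicate intensities are raw and not normalised per plate.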 The numbers tell different reagents against one gene apart. Not all columns of the deposit are shown.

Test: 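Genes that change LPS-induced Tnf promoter activity in mouse macrophages when knocked down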 (primary screen)
Cells: RAW264.7 G9 macrophages from mouse bearing reporters for p65 (GFP) and the Tnf promoter (mCherry)
Reagents: siRNA pool against mouse genes, 100 nM
Timing: 16 h of LPS stimulation, after 2 days of siRNA transfection
Treatment: bacterial lipopolysaccharide (Salmonella minnesota R595), 10 ng/ml
Measurement: 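Nuclear mCherry signal of the Tnf promoter reporter measured by imaging after background removal, scaled to each plate median and turned into robust z-scores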
Reading the numbers: Tnf reporter robust z-score: higher = stronger Tnf promoter reporter signal after LPS
Rule for the call: 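Called active when robust z-score is at most -1.3, matching the median of the Tlr4 knock-down control, or over 3; control wells and wells with under 50 cells never active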
Calls: active = Tnf reporter clearly lowered or raised; inactive = no clear change in Tnf reporter

no.	Gene	pool no.	Tnf reporter robust z-score	fewer than 50 cells in well	activity call
1	Gm9927	1	0.64	enough cells in well	inactive
2	Vps41	1	0.81	enough cells in well	inactive
3	Atp5mk	1	0.59	enough cells in well	inactive
4	Rad9b	1	-1.21	enough cells in well	inactive
5	Rad9b	2	1.24	enough cells in well	inactive
6	Epcip	1		fewer than 50 cells per well; well left out of calls	inactive
7	Pcdhb20	1	0.36	enough cells in well	inactive
8	Galnt17	1	-0.7	enough cells in well	inactive
9	Arpc1b	1	-0.98	enough cells in well	inactive
10	Lce1i	1		fewer than 50 cells per well; well left out of calls	inactive
11	Gca	1	-0.81	enough cells in well	inactive
12	Hmx3	1	-1.03	enough cells in well	inactive
13	Etd	1	-1.38	enough cells in well	active
14	Or1ak2	1	0.35	enough cells in well	inactive
15	Arl6	1	-0.89	enough cells in well	inactive
16	Tspyl4	1		fewer than 50 cells per well; well left out of calls	inactive
17	Pik3ap1	1	-0.48	enough cells in well	inactive
18	Tmem71	1	-1.46	enough cells in well	active
19	A530079E22Rik	1	2.01	enough cells in well	inactive
20	Grhpr	1	3.23	enough cells in well	active
21	Ldlrap1	1	-0.09	enough cells in well	inactive
22	Pip5k1c	1	0.16	enough cells in well	inactive
23	Naa60	1	1.15	enough cells in well	inactive
24	Tsr3	1	-0.2	enough cells in well	inactive
25	Rtca	1	-0.97	enough cells in well	inactive
26	Tnfsf11	1	0.19	enough cells in well	inactive
27	Neil2	1	4.51	enough cells in well	active
28	Tmem134	1		fewer than 50 cells per well; well left out of calls	inactive
29	Dpp6	1	0.41	enough cells in well	inactive
30	Dpp6	2	-0.34	enough cells in well	inactive
31	Gask1b	1	2.62	enough cells in well	inactive
32	Terb1	1	-0.27	enough cells in well	inactive
33	Sae1	1		fewer than 50 cells per well; well left out of calls	inactive
34	Epha1	1	0.74	enough cells in well	inactive
35	A630031M04Rik	1	2.28	enough cells in well	inactive
36	Slco6b1	1		fewer than 50 cells per well; well left out of calls	inactive
37	Mapk8ip3	1	-1	enough cells in well	inactive
38	Vcam1	1	0	enough cells in well	inactive
39	Cd302	1	-0.73	enough cells in well	inactive
40	Or2n1d	1	-1.27	enough cells in well	inactive
41	Rgmb	1	0.2	enough cells in well	inactive
42	Pcbp1	1	0.09	enough cells in well	inactive
43	Prr5	1	-1.13	enough cells in well	inactive
44	Sec61a2	1	0.56	enough cells in well	inactive
45	Asic5	1	0.62	enough cells in well	inactive
46	Fbln5	1	1.09	enough cells in well	inactive
47	Echdc3	1	0.08	enough cells in well	inactive
48	Ugt2a1	1	0.65	enough cells in well	inactive
49	Armc5	1	-0.01	enough cells in well	inactive
50	As3mt	1		fewer than 50 cells per well; well left out of calls	inactive
51	Krt9	1	0.67	enough cells in well	inactive
52	Map3k1	1	-0.62	enough cells in well	inactive
53	Dedd	1	0.6	enough cells in well	inactive
54	Or8d1b	1	1.3	enough cells in well	inactive
55	Ssu2	1		fewer than 50 cells per well; well left out of calls	inactive
56	Fxyd1	1	-0.71	enough cells in well	inactive
57	Vwa2	1	-1.12	enough cells in well	inactive
58	Prl2a1	1	2.08	enough cells in well	inactive

Looked up above:
Result of Dpp6 #2 in “fewer than 50 cells in well”: enough cells in well
Pik3ap1, activity call → inactive
Result for Neil2 in “Tnf reporter robust z-score”: 4.51
For “activity call”, Map3k1 is entered as inactive
Sec61a2, activity call = inactive
Tnfsf11, fewer than 50 cells in well → enough cells in well
